A short description of this series: Dissolution in 500 mL deionized water at 37° C., 50-rpm paddle, UV analysis. Type of series: physicochemical. The conditions noted are these: IR layer of Example 1 tablet, deionized water 37° C., UV 232 nm.

Counter-ions that a name gives are not always drawn.

Regarding `O=C(O)COCCN1CCN(C(c2ccccc2)c2ccc(Cl)cc2)CC1` (stereo not shown) [cetirizine, cetirizine HCl], the “time for all cetirizine to dissolve” value is reported as “one”.

The values above are taken from patent US20030143272A1, “Pharmaceutical tablet and process for making thereof” (priority 2001, published 2003).
